## Results of single-concentration screens

Amino acid sequences for entries named in this document (tags omitted).
UniProt P9WNZ1, whole entry: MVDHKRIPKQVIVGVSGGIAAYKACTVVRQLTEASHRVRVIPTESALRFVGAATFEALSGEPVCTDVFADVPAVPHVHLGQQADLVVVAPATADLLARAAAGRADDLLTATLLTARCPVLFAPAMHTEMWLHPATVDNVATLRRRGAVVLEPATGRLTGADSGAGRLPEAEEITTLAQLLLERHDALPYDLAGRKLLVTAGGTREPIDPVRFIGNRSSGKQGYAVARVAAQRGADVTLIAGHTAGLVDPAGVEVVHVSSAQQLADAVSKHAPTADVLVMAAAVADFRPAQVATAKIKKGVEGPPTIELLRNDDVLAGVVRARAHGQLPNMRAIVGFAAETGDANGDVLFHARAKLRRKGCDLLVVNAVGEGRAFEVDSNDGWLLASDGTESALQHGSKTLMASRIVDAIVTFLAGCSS
UniProt P9WFT3, whole entry: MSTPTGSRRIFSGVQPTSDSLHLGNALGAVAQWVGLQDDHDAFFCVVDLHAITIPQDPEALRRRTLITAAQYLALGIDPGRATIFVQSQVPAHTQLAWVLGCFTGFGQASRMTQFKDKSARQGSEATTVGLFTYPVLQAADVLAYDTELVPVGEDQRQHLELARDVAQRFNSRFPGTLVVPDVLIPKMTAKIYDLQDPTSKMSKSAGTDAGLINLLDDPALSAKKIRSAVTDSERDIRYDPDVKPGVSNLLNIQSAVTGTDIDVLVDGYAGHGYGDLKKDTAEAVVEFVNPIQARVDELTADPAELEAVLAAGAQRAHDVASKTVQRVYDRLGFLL
UniProt I6X8D2, whole entry: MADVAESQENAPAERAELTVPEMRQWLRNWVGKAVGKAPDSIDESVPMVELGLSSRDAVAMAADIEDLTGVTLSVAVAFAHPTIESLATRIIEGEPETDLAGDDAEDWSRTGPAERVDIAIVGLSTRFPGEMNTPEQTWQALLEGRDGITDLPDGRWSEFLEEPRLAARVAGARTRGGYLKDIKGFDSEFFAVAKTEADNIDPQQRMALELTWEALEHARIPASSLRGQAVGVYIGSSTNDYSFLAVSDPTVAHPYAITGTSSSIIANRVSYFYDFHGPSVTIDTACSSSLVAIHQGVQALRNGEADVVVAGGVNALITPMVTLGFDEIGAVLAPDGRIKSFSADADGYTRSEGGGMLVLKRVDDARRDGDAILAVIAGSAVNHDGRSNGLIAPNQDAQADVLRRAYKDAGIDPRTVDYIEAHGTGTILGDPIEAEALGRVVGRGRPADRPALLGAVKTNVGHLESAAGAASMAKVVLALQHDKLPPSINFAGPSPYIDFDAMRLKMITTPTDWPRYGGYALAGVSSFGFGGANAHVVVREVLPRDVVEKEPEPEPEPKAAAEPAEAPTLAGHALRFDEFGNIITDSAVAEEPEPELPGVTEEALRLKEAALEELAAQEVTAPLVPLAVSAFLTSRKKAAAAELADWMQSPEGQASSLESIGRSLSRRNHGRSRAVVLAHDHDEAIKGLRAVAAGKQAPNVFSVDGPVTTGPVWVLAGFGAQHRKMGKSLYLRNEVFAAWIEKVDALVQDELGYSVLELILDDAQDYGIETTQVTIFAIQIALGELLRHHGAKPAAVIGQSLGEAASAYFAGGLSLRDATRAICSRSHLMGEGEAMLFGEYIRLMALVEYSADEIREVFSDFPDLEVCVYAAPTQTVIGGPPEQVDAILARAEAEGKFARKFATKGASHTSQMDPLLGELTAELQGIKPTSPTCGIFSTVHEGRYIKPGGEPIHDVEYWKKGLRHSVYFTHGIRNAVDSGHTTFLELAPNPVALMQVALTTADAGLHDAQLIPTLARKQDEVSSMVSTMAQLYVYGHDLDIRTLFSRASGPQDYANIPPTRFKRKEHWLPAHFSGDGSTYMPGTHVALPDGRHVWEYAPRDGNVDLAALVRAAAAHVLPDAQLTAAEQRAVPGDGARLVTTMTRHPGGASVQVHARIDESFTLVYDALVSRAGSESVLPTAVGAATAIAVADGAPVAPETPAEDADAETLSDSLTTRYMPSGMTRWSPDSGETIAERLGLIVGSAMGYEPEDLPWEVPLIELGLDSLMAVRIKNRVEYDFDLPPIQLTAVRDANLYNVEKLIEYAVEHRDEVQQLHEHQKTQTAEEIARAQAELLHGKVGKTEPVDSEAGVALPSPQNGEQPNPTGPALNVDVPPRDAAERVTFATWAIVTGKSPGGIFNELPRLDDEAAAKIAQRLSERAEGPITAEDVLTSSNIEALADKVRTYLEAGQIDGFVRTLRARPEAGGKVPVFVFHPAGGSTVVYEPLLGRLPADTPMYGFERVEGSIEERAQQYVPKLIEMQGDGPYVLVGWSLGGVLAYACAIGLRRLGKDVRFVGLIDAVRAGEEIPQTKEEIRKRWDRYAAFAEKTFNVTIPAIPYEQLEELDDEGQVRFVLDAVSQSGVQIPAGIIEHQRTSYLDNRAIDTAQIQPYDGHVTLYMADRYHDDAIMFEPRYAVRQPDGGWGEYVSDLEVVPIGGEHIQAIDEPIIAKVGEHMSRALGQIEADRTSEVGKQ

The values are deposited in ChEMBL (CHEMBL3988442, “University of Dundee, Small-Polar-MMV Screening Library” (2021)).

A: 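Coenzyme A biosynthesis protein CoaBC, Mycobacterium tuberculosis (UniProt P9WNZ1). Enzyme assay of CoaBC with a phosphate dye (Biomol Green) read at 650 nm. Tested at 30 µM. Higher reads as stronger inhibition, judged from the few compounds that gave an IC50. Most strong results did not repeat in a second test. Of about 67,000 compounds tested this way, about 40 (0.06%) reached 50% or more in at least one test.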
B: 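Enzyme assay of tryptophanyl-tRNA synthetase; the read-out is not stated. Target: Tryptophan-tRNA ligase, Mycobacterium tuberculosis (UniProt P9WFT3). Compounds at 10 µM. Direction is not recorded; retested compounds ran higher, which suggests that high means inhibition. Size under these conditions: about 65,000 compounds, about 64 of them at 50% or above in at least one test.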
C: 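Enzyme assay of the thioesterase domain of polyketide synthase 13; the read-out is not stated. Target: Polyketide synthase Pks13, Mycobacterium tuberculosis (UniProt I6X8D2). Concentration: 30 µM. The record gives no direction; the compounds picked for IC50 retests had high values, so higher reads as stronger inhibition. Size under these conditions: about 67,000 compounds, about 300 of them at 50% or above in at least one test.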

Each number is a percent effect as filed. How 0% and 100% were set is not recorded. Most values in the screen are low, and negative values occur. The compounds are a random part of those screened.

For Cc1nn2c(-c3snnc3C)nnc2s1 the result was A: -12.5%; B: -0.5663%; C: 14.65%.
For CC(C)c1nnc(CN(C)C(c2ccccc2)c2ccc(F)cc2)o1 (centres unmarked) the result was A: -2.784%; B: -4.114%; C: -83.32%.
For Cc1ccc(C(=O)N2C[C@@H](NS(C)(=O)=O)[C@H](C(C)C)C2)cc1O the result was A: 6.01%; B: 4.11%; C: -13.06%.
For Cc1noc(Cl)c1CCC(=O)N1CCN(c2cnccn2)CC1 the result was A: -0.9126%; B: -1.355%; C: 5.161%.
For Cc1nccc(-c2cccc(NCC(=O)N3CCc4sccc4C3)c2)n1 the result was A: 2.17%; B: 2.827%; C: 0.1384%.
For CCn1nc(C)c2nc(C(C)C)nc(NCCCn3cccn3)c21 the result was A: -3.002%; B: 2.591%; C: 22.3%.
For CC(C)(NC(=O)CCc1ccco1)c1ccc2c(c1)OCCO2 the result was A: 1.523%; B: -2.389%; C: -12.98%.
For Cc1ccc(-c2ccnc(N3CCC4(CC3)CNC(=O)O4)n2)c(C)n1 the result was A: 1.471%; B: -0.8642%; C: -31.54%.
For Cc1nn(-c2ncnc3[nH]cnc23)c2c1C(C(C)(C)C)CC(=O)N2 (centres unmarked) the result was A: -12.76%; B: 1.537%; C: -19.24%.
For CN(C(=O)Cn1nc(-c2ccccc2Cl)ccc1=O)C1CCS(=O)(=O)C1 (centres unmarked) the result was A: 4.545%; B: -0.7703%; C: -12.77%.
For CCc1cnc(CN2CCCC2c2noc(C3CC3)n2)o1 (centres unmarked) the result was A: 2.254%; B: -2.895%; C: -18.34%.
For CC(C)c1ccc(CN2CCN(C(=O)c3cc(C4CC4)[nH]n3)CC2)cc1 the result was A: 15.79%; B: 8.276%; C: -15.31%.
For Cc1cc(C(=O)Nc2n[nH]c(C3CC3)n2)c2c(C)noc2n1 the result was A: 2.301%; B: 7.291%; C: -9.365%.
For COc1c(CNCc2ccccc2CO)c(C)nn1C the result was A: 9.921%; B: -6.075%; C: -13.48%.
For Clc1ccc(OCCc2cc(C3CCN(c4ncccn4)C3)n[nH]2)cc1 (centres unmarked) the result was A: 0.7398%; B: -2.375%; C: -1.261%.
For CCN(CC)c1ccc(C2C3=C(COC3=O)Nc3[nH]nc(C)c32)cc1 (centres unmarked) the result was A: 4.925%; B: 1.443%; C: -1.535%.
For Cc1noc2nc3c(c(C(=O)/N=c4\[nH]nc(C(C)C)s4)c12)CCC3 the result was A: 0.8505%; B: -0.3215%; C: 2.255%.
For Cc1ccc(-c2noc(CC[C@@H]3CCCN4CCCC[C@H]34)n2)nn1 the result was A: -2.263%; B: 1.107%; C: -24.57%.
For Cc1cnn(CC2CCCN2C(=O)c2cc3ccccc3c(=O)[nH]2)c1 (centres unmarked) the result was A: 3.655%; B: -0.1254%; C: -19.19%.
For O=S(=O)(NCC1CCN(CCN2CCOCC2)C1)c1ccccc1F (centres unmarked) the result was A: 2.616%; B: 1.583%; C: 16.57%.
For COC(=O)c1cc(C2CC2)nc2c(Cl)cnn12 the result was A: 0.2336%; B: 1.774%; C: 1.71%.
For CC(C)Oc1ncccc1CNC(=O)c1ccco1 the result was A: 4.563%; B: 1.098%; C: -11.25%.
For Cn1cc2c(n1)C(CNC(=O)Cc1ccsc1)OCC2 (centres unmarked) the result was A: 4.689%; B: 3.418%; C: -8.206%.
For Cc1nc(C)n(CC2CCCCN2CC(=O)N(C)Cc2ccco2)n1 (centres unmarked) the result was A: 8.974%; B: -6.02%; C: 6.864%.
For CC(C)(C)c1n[nH]c(C2CN(C(=O)CCc3cccs3)CCO2)n1 (centres unmarked) the result was A: 5.115%; B: 1.456%; C: -124.6%.
For c1ccc2c(c1)nc1n2[C@@H](CNCc2nccs2)COC1 the result was A: 7.419%; B: -4.74%; C: -30.23%.
For CC(=O)Nc1nc(C2CCCN(C(=O)CN(C)C)C2)cs1 (centres unmarked) the result was A: 1.36%; B: -4.235%; C: 12.49%.
For CCn1nc(C)c(CN(CCCOC)Cc2ccccn2)c1C the result was A: 10.68%; B: 2.889%; C: -11.36%.
For Cc1ccn2c(F)c(C(=O)N3CCC4(CCCN(C)C4=O)C3)nc2c1 (centres unmarked) the result was A: 1.316%; B: 1.464%; C: -24.06%.
For Cc1ncsc1CN1CC[C@H]2OCC[C@@]2(C(=O)N2CCCC2)C1 the result was A: 11.58%; B: 1.036%; C: -36.88%.
For CCCc1cc(C(=O)N2CCCC(n3ccnc3C)C2)[nH]n1 (centres unmarked) the result was A: 1.028%; B: -3.226%; C: -36.53%.
For Cc1cc(C(=O)N2CCCC(N3CCNC3=O)C2)nn1C(C)(C)C (centres unmarked) the result was A: 3.178%; B: 0.3915%; C: 3.881%.
For O=C(CN1CCOC(Cn2cccn2)C1)NC1CCN(C2CC2)CC1 (centres unmarked) the result was A: -0.7335%; B: 0.2349%; C: -4.475%.
For CC1CCCN(CCCNC(=O)Cc2csc(-c3ccoc3)n2)C1 (centres unmarked) the result was A: 0.2049%; B: 0%; C: -18.74%.
For CC(C)CNC(=O)CNC(=O)NC(C)COc1ccccc1F (centres unmarked) the result was A: -1.449%; B: -6.616%; C: -11.57%.

Some entries from above, unchanged:

{"structure": "Cc1noc2nc3c(c(C(=O)/N=c4\\[nH]nc(C(C)C)s4)c12)CCC3", "A": 0.8505, "B": -0.3215, "C": 2.255}
{"structure": "O=S(=O)(NCC1CCN(CCN2CCOCC2)C1)c1ccccc1F", "stereo": "centres unmarked", "A": 2.616, "B": 1.583, "C": 16.57}